Laboratory results taken from paper PMC6274357, “Antiprotozoal and Antiglycation Activities of Sesquiterpene Coumarins from Ferula narthex Exudate” (Molecules, 2016).
“And” between values parts separate entries of the source, which are not always exact repeats. Identical values can stand only once.

Tested on: MRC-5: Human fetal lung fibroblasts
Experiment: Cytotoxicity on MRC-5 cells
Format: cell-based
Details: MRC5
Protocol: Fractions and isolated compounds were evaluated for antimicrobial activity in an integrated screening panel as reported before.

CC/C(=C(\c1ccccc1)c1ccc(OCCN(C)C)cc1)c1ccccc1 [Tamoxifen, reference compound]
IC50: 11.4 µg/mL and 11.3 µM
